Data from the primary screen of doi:10.1371/journal.pone.0140310, rounded.

Drug key:
fludarabine (0.2 µM): Nc1nc(F)nc2c1ncn2[C@@H]1O[C@H](CO)[C@@H](O)[C@@H]1O
SNS-314 (0.0008 µM): O=C(Nc1cccc(Cl)c1)Nc1ncc(CCNc2ncnc3ccsc23)s1
decitabine (0.1 µM): Nc1ncn([C@H]2C[C@H](O)[C@@H](CO)O2)c(=O)n1
everolimus (0.02 µM): CO[C@H]1C[C@@H]2CC[C@@H](C)[C@@](O)(O2)C(=O)C(=O)N2CCCC[C@H]2C(=O)O[C@H]([C@H](C)C[C@@H]2CC[C@@H](OCCO)[C@H](OC)C2)CC(=O)[C@H](C)/C=C(\C)[C@@H](O)[C@@H](OC)C(=O)[C@H](C)C[C@H](C)/C=C/C=C/C=C/1C
U73122 (0.4 µM): COc1ccc2c(c1)CCC1C2CCC2(C)C(NCCCCCCN3C(=O)C=CC3=O)CCC12 (centres undefined)
midostaurin (0.08 µM): CO[C@@H]1[C@H](N(C)C(=O)c2ccccc2)C[C@H]2O[C@]1(C)n1c3ccccc3c3c4c(c5c6ccccc6n2c5c31)C(=O)NC4
L-779450 (0.2 µM): Oc1cc(-c2nc(-c3ccccc3)[nH]c2-c2ccncc2)ccc1Cl
temozolomide (2 µM): Cn1nnc2c(C(N)=O)ncn2c1=O
LFM-A13 (2 µM): C/C(O)=C(\C#N)C(=O)Nc1cc(Br)ccc1Br
KU-0063794 (0.02 µM): COc1ccc(-c2ccc3c(N4CCOCC4)nc(N4C[C@@H](C)O[C@@H](C)C4)nc3n2)cc1CO
TCS401 (1.67 µM): O=C(O)C(=O)Nc1sc2c(c1C(=O)O)CCNC2
SNS-032 (0.01 µM): CC(C)(C)c1cnc(CSc2cnc(NC(=O)C3CCNCC3)s2)o1

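Human melanoma cells were exposed to two drugs together for 72 h in 1,536-well plates and read by automated microscopy after fixing and staining. Values are the number of DAPI-stained nuclei as a percentage of the DMSO control: 100 is no effect, lower means fewer cells. Concentrations were fixed for each drug; these are the lower of two levels, a fifth of the higher. The file gives one value for each pair and line, without errors, so small differences may be noise.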
An unselected part of the screen is shown.
A dash means that no value is listed here.

| Drugs | A375 | A101D | IPC-298 | LB2518-MEL | COLO 829 | COLO 800 | COLO 792 | LOX IMVI | IST-MEL1 | MEL-HO |
|---|---|---|---|---|---|---|---|---|---|---|
| temozolomide + everolimus | 55.7 | 83.1 | 74.3 | 73.4 | 61.1 | 55.7 | 47.3 | 51.2 | 73.4 | 69.5 |
| fludarabine + SNS-314 | 12.4 | 95.3 | 90.0 | 90.4 | 97.2 | 69.3 | 98.3 | 105 | 86.4 | 101 |
| temozolomide + fludarabine | 16.7 | 99.3 | 86.5 | - | 95.9 | 78.7 | 91.5 | 97.5 | 83.2 | 88.0 |
| decitabine + SNS-314 | 86.1 | 100 | 61.3 | 71.4 | 71.1 | 54.0 | 73.9 | 72.8 | 81.7 | 87.6 |
| SNS-314 + U73122 | 95.7 | 97.3 | 99.2 | 111 | 91.5 | 84.2 | 93.2 | 108 | 99.2 | 101 |
| U73122 + midostaurin | 87.8 | 80.6 | 103 | 116 | 77.9 | 91.6 | 99.5 | 65.9 | 94.8 | 77.3 |
| SNS-314 + L-779450 | 110 | 94.3 | 79.5 | 89.5 | 83.5 | 84.6 | 88.4 | 120 | 97.5 | 85.1 |
| SNS-314 + everolimus | 62.5 | 76.0 | 73.5 | 74.2 | 70.4 | 56.3 | 63.0 | 60.9 | 63.5 | 62.6 |
| decitabine + L-779450 | - | 80.0 | 61.5 | 75.1 | 74.2 | 110 | 81.1 | 100 | 90.2 | 65.8 |
| midostaurin + TCS401 | 88.2 | 90.2 | 102 | 102 | 87.6 | 97.4 | 108 | 74.6 | 97.6 | 89.8 |
| fludarabine + U73122 | - | 98.1 | 89.0 | 91.3 | 97.5 | 89.8 | 101 | 111 | 98.7 | 90.3 |
| L-779450 + temozolomide | 89.1 | 112 | 83.7 | 88.5 | 104 | 88.7 | 102 | 93.4 | 93.4 | 77.0 |
| SNS-032 + L-779450 | 76.8 | 88.9 | 78.5 | 102 | 96.2 | 59.6 | 89.2 | 106 | 104 | 88.0 |
| U73122 + temozolomide | 81.9 | 85.9 | 91.1 | 94.8 | 88.0 | 110 | 91.4 | 92.1 | 90.2 | 104 |
| midostaurin + fludarabine | 9.2 | 82.2 | 103 | 115 | 93.5 | 158 | 82.7 | 156 | 82.2 | 83.9 |
| fludarabine + SNS-032 | 12.2 | 101 | 94.6 | 97.0 | 83.2 | 93.7 | 80.9 | 91.9 | 88.0 | 87.4 |
| fludarabine + TCS401 | - | 111 | 101 | 111 | 124 | 44.3 | 101 | 90.7 | 97.3 | 93.6 |
| midostaurin + L-779450 | 76.7 | 80.2 | 78.4 | 70.5 | 108 | 115 | 106 | 82.2 | 95.8 | 65.7 |
| SNS-032 + KU-0063794 | 75.6 | 103 | 98.1 | 109 | 101 | 91.0 | 83.4 | 75.0 | 93.0 | 73.8 |
| KU-0063794 + LFM-A13 | 81.5 | 92.5 | 97.2 | 101 | 96.2 | 146 | 76.9 | 76.6 | 103 | 95.3 |
| LFM-A13 + SNS-314 | 110 | 103 | 99.0 | 107 | 85.6 | 90.8 | 86.0 | 93.2 | 97.3 | 104 |
| SNS-032 + TCS401 | 103 | 99.8 | 96.9 | 91.5 | 99.3 | 93.5 | 99.4 | 106 | 104 | 88.4 |
| decitabine + midostaurin | 95.1 | 72.9 | 69.7 | 69.7 | 80.9 | 51.8 | 80.1 | 66.3 | 74.5 | 70.8 |
| SNS-032 + decitabine | 75.1 | 92.5 | 71.8 | 94.2 | 77.4 | 84.5 | 82.5 | 89.1 | 82.3 | 94.3 |
| KU-0063794 + decitabine | - | 77.8 | 58.4 | 78.1 | 69.5 | 73.6 | 88.1 | 83.7 | 94.0 | 61.1 |
| temozolomide + LFM-A13 | 98.2 | 107 | 91.7 | 110 | 80.3 | 76.3 | 88.0 | 82.1 | 90.4 | 90.0 |
| TCS401 + decitabine | - | 95.6 | 62.8 | - | 85.6 | 104 | 86.7 | 112 | 81.6 | 89.3 |
| KU-0063794 + fludarabine | - | 2.0 | 85.2 | 102 | 90.3 | 78.5 | 95.9 | 89.5 | 89.9 | 89.1 |
| everolimus + SNS-032 | 55.0 | 77.8 | 78.1 | 76.3 | 82.0 | 55.8 | 55.8 | 70.2 | 86.8 | 64.0 |
| LFM-A13 + midostaurin | 96.4 | 86.0 | 91.7 | 114 | 95.2 | 72.5 | 94.7 | 82.5 | 93.5 | 80.1 |
| midostaurin + everolimus | 49.3 | 82.0 | 80.0 | 68.3 | 70.7 | 49.1 | 56.6 | 64.0 | 87.1 | 71.8 |
| TCS401 + SNS-314 | 108 | 98.5 | 105 | 103 | 75.0 | 106 | 96.5 | 101 | 99.4 | 89.8 |
| U73122 + SNS-032 | 72.5 | 98.1 | 101 | 96.9 | 102 | 56.8 | 104 | 81.4 | 99.2 | 96.7 |
| LFM-A13 + TCS401 | 94.9 | 93.6 | 101 | 114 | 92.8 | 80.9 | 92.7 | 122 | 106 | 72.7 |
| TCS401 + everolimus | - | 86.1 | 76.8 | 87.9 | 65.3 | 53.4 | 58.6 | 59.6 | 89.7 | 94.4 |
| everolimus + LFM-A13 | - | 87.6 | 59.8 | 75.9 | 71.6 | 48.1 | 64.5 | 65.2 | 88.2 | 70.5 |
| KU-0063794 + SNS-314 | 80.9 | 89.9 | 94.1 | 103 | 78.7 | 67.0 | 94.4 | 81.4 | 90.8 | 76.9 |
| TCS401 + temozolomide | 86.2 | 100 | 86.0 | 110 | 83.2 | 157 | 111 | 79.8 | 98.2 | 101 |

3 of the entries, repeated:

| Drugs | A375 | A101D | IPC-298 | LB2518-MEL | COLO 829 | COLO 800 | COLO 792 | LOX IMVI | IST-MEL1 | MEL-HO |
|---|---|---|---|---|---|---|---|---|---|---|
| TCS401 + decitabine | - | 95.6 | 62.8 | - | 85.6 | 104 | 86.7 | 112 | 81.6 | 89.3 |
| LFM-A13 + TCS401 | 94.9 | 93.6 | 101 | 114 | 92.8 | 80.9 | 92.7 | 122 | 106 | 72.7 |
| midostaurin + L-779450 | 76.7 | 80.2 | 78.4 | 70.5 | 108 | 115 | 106 | 82.2 | 95.8 | 65.7 |